The mice bore no tumour; each value counts animals alive of those treated. Survivors were counted at the toxicity check, usually on the fifth day, unless a day is given; later deaths do not show. Schedules are NCI's codes, taken here to give the interval after Q, in days (D) or hours (H), and the number of doses after X. Some doses were run more than once; their values stand side by side, smallest first.
Tested on: B6D2F1 mice, nontumored toxicity test, survival
Test: NCI In Vivo Anticancer Drug Screen. Data for tumor model Nontumored Animals (Toxicity Test) in B6D2F1 (BDF1) mice

In the case of `COC(=O)[C@@]12OC[C@]34[C@H]([C@@H](O)[C@@H]1O)[C@@]1(C)CC(=O)C(O)=C(C)[C@@H]1C[C@H]3OC(=O)[C@H](OC(=O)/C=C(\C)C(C)C)[C@@H]24`, the survivor count (dose: 0.03 mg/kg/injection, schedule: Q01DX009 (ip), vehicle: saline + alcohol) is reported as 8 of 8, the survivor count (dose: 0.03 mg/kg/injection, schedule: Q01DX009 (ip), vehicle: saline with Tween-80) is reported as 8 of 8 and the survivor count (dose: 0.03 mg/kg/injection, schedule: Q03HX024 (ip), vehicle: saline + alcohol) is reported as 8 of 8. The survivor count (dose: 0.05 mg/kg/injection, schedule: Q01DX005 (iv), vehicle: saline + alcohol) was 8 of 8, the survivor count (dose: 0.05 mg/kg/injection, schedule: Q01DX009 (ip), vehicle: saline + alcohol) was 7 of 7 and the survivor count (dose: 0.06 mg/kg/injection, schedule: Q01DX009 (ip), vehicle: saline + alcohol) was 8 of 8. For the same compound, the survivor count (dose: 0.06 mg/kg/injection, schedule: Q01DX009 (ip), vehicle: saline with Tween-80) was 8 of 8, the survivor count (dose: 0.06 mg/kg/injection, schedule: Q01DX009 (sc), vehicle: saline + alcohol) was 8 of 8 and the survivor count (dose: 0.06 mg/kg/injection, schedule: Q03HX016 (ip), vehicle: saline + alcohol) was 8 of 8. The survivor count (dose: 0.06 mg/kg/injection, schedule: Q03HX024 (ip), vehicle: saline + alcohol) was 8 of 8, the survivor count (dose: 0.1 mg/kg/injection, schedule: Q01DX005 (iv), vehicle: saline + alcohol) was 8 of 8 and the survivor count (dose: 0.1 mg/kg/injection, schedule: Q01DX009 (ip), vehicle: saline + alcohol) was 8 of 8. The survivor count (dose: 0.13 mg/kg/injection, schedule: Q01DX009 (ip), vehicle: saline + alcohol) was 8 of 8, the survivor count (dose: 0.13 mg/kg/injection, schedule: Q01DX009 (ip), vehicle: saline with Tween-80) was 8 of 8 and the survivor count (dose: 0.13 mg/kg/injection, schedule: Q01DX009 (sc), vehicle: saline + alcohol) was 8 of 8. The survivor count (dose: 0.13 mg/kg/injection, schedule: Q03HX008 (ip), vehicle: saline + alcohol) was 8 of 8, the survivor count (dose: 0.13 mg/kg/injection, schedule: Q03HX016 (ip), vehicle: saline + alcohol) was 8 of 8 and the survivor count (dose: 0.13 mg/kg/injection, schedule: Q03HX024 (ip), vehicle: saline + alcohol) was 8 of 8. The survivor count (dose: 0.2 mg/kg/injection, schedule: Q01DX005 (iv), vehicle: saline + alcohol) was 8 of 8, the survivor count (dose: 0.2 mg/kg/injection, schedule: Q01DX009 (ip), vehicle: saline + alcohol) was 8 of 8 and the survivor count (dose: 0.25 mg/kg/injection, schedule: Q01DX009 (ip), vehicle: saline + alcohol) was 8 of 8. For the same compound, the survivor count (dose: 0.25 mg/kg/injection, schedule: Q01DX009 (ip), vehicle: saline with Tween-80) was 8 of 8, the survivor count (dose: 0.25 mg/kg/injection, schedule: Q01DX009 (sc), vehicle: saline + alcohol) was 8 of 8 and the survivor count (dose: 0.25 mg/kg/injection, schedule: Q03HX008 (ip), vehicle: saline + alcohol) was 7 of 8. The survivor count (dose: 0.25 mg/kg/injection, schedule: Q03HX016 (ip), vehicle: saline + alcohol) was 8 of 8, the survivor count (dose: 0.25 mg/kg/injection, schedule: Q03HX024 (ip), vehicle: saline + alcohol) was 7 of 8 and the survivor count (dose: 0.25 mg/kg/injection, schedule: Q04DX003 (ip), vehicle: saline + alcohol) was 8 of 8. The survivor count (dose: 0.4 mg/kg/injection, schedule: Q01DX005 (iv), vehicle: saline + alcohol) was 8 of 8, the survivor count (dose: 0.4 mg/kg/injection, schedule: Q01DX009 (ip), vehicle: saline + alcohol) was 8 of 8 and the survivor count (dose: 0.44 mg/kg/injection, schedule: Q01DX009 (ip), vehicle: saline with Tween-80) was 10 of 10. The survivor count (dose: 0.5 mg/kg/injection, schedule: Q01DX009 (ip), vehicle: saline + alcohol) was 8 of 8, the survivor count (dose: 0.5 mg/kg/injection, schedule: Q01DX009 (ip), vehicle: saline with Tween-80) was 8 of 8 and the survivor count (dose: 0.5 mg/kg/injection, schedule: Q01DX009 (oral), vehicle: saline + alcohol) was 7 of 8 and 8 of 8. For the same compound, the survivor count (dose: 0.5 mg/kg/injection, schedule: Q01DX009 (sc), vehicle: saline + alcohol) was 8 of 8, the survivor count (dose: 0.5 mg/kg/injection, schedule: Q03HX008 (ip), vehicle: saline + alcohol) was 0 of 8 and the survivor count (dose: 0.5 mg/kg/injection, schedule: Q03HX016 (ip), vehicle: saline + alcohol) was 0 of 8. For the same compound, the survivor count (dose: 0.5 mg/kg/injection, schedule: Q03HX024 (ip), vehicle: saline + alcohol) was 0 of 8, the survivor count (dose: 0.5 mg/kg/injection, schedule: Q04DX003 (ip), vehicle: saline + alcohol) was 8 of 8 and the survivor count (dose: 0.5 mg/kg/injection, schedule: Q08DX002 (ip), vehicle: saline + alcohol) was 8 of 8. The survivor count (dose: 0.66 mg/kg/injection, schedule: Q01DX009 (ip), vehicle: saline with Tween-80) was 10 of 10, the survivor count (dose: 0.67 mg/kg/injection, schedule: Q01DX009 (ip), vehicle: saline with Tween-80) was 10 of 10 and the survivor count (dose: 0.8 mg/kg/injection, schedule: Q01DX005 (ip), vehicle: saline + alcohol) was 8 of 8. The survivor count (dose: 0.8 mg/kg/injection, schedule: Q01DX005 (iv), vehicle: saline + alcohol) was 8 of 8, the survivor count (dose: 0.8 mg/kg/injection, schedule: Q01DX009 (ip), vehicle: saline + alcohol) was 8 of 8 and the survivor count (dose: 1.0 mg/kg/injection, schedule: Q01DX001 (ip), vehicle: saline + alcohol) was 8 of 8. For the same compound, the survivor count (dose: 1.0 mg/kg/injection, schedule: Q01DX001 (oral), vehicle: saline + alcohol) was 8 of 8, the survivor count (dose: 1.0 mg/kg/injection, schedule: Q01DX001 (sc), vehicle: saline + alcohol) was 8 of 8 and the survivor count (dose: 1.0 mg/kg/injection, schedule: Q01DX009 (ip), vehicle: saline + alcohol) was 8 of 8. For the same compound, the survivor count (dose: 1.0 mg/kg/injection, schedule: Q01DX009 (ip), vehicle: saline with Tween-80) was 10 of 10 and 8 of 8, the survivor count (dose: 1.0 mg/kg/injection, schedule: Q01DX009 (oral), vehicle: saline + alcohol) was 7 of 8 and 8 of 8 and the survivor count (dose: 1.0 mg/kg/injection, schedule: Q01DX009 (sc), vehicle: saline + alcohol) was 8 of 8. For the same compound, the survivor count (dose: 1.0 mg/kg/injection, schedule: Q03HX008 (ip), vehicle: saline + alcohol) was 0 of 8, the survivor count (dose: 1.0 mg/kg/injection, schedule: Q03HX016 (ip), vehicle: saline + alcohol) was 0 of 8 and the survivor count (dose: 1.0 mg/kg/injection, schedule: Q04DX003 (ip), vehicle: saline + alcohol) was 8 of 8. For the same compound, the survivor count (dose: 1.0 mg/kg/injection, schedule: Q08DX002 (ip), vehicle: saline + alcohol) was 8 of 8, the survivor count (dose: 1.5 mg/kg/injection, schedule: Q01DX009 (ip), vehicle: saline with Tween-80) was 9 of 10 and 10 of 10 and the survivor count (dose: 1.6 mg/kg/injection, schedule: Q01DX005 (ip), vehicle: saline + alcohol) was 8 of 8. For the same compound, the survivor count (dose: 1.6 mg/kg/injection, schedule: Q01DX005 (iv), vehicle: saline + alcohol) was 8 of 8, the survivor count (dose: 1.6 mg/kg/injection, schedule: Q01DX009 (ip), vehicle: saline + alcohol) was 8 of 8 and the survivor count (dose: 2.0 mg/kg/injection, schedule: Q01DX001 (ip), vehicle: saline + alcohol) was 8 of 8. For the same compound, the survivor count (dose: 2.0 mg/kg/injection, schedule: Q01DX001 (oral), vehicle: saline + alcohol) was 8 of 8, the survivor count (dose: 2.0 mg/kg/injection, schedule: Q01DX001 (sc), vehicle: saline + alcohol) was 8 of 8 and the survivor count (dose: 2.0 mg/kg/injection, schedule: Q01DX009 (ip), vehicle: saline + alcohol) was 5 of 8, 7 of 8, 8 of 8. For the same compound, the survivor count (dose: 2.0 mg/kg/injection, schedule: Q01DX009 (ip), vehicle: saline with Tween-80) was 7 of 8, the survivor count (dose: 2.0 mg/kg/injection, schedule: Q01DX009 (oral), vehicle: saline + alcohol) was 6 of 7 and 8 of 8 and the survivor count (dose: 2.0 mg/kg/injection, schedule: Q01DX009 (sc), vehicle: saline + alcohol) was 8 of 8. For the same compound, the survivor count (dose: 2.0 mg/kg/injection, schedule: Q03HX008 (ip), vehicle: saline + alcohol) was 0 of 8, the survivor count (dose: 2.0 mg/kg/injection, schedule: Q03HX016 (ip), vehicle: saline + alcohol) was 0 of 8 and the survivor count (dose: 2.0 mg/kg/injection, schedule: Q04DX003 (ip), vehicle: saline + alcohol) was 8 of 8. The survivor count (dose: 2.0 mg/kg/injection, schedule: Q08DX002 (ip), vehicle: saline + alcohol) was 8 of 8, the survivor count (dose: 2.25 mg/kg/injection, schedule: Q01DX009 (ip), vehicle: saline with Tween-80) was 8 of 10 and 10 of 10 and the survivor count (dose: 3.2 mg/kg/injection, schedule: Q01DX005 (ip), vehicle: saline + alcohol) was 7 of 8. The survivor count (dose: 3.2 mg/kg/injection, schedule: Q01DX005 (iv), vehicle: saline + alcohol) was 8 of 8, the survivor count (dose: 4.0 mg/kg/injection, schedule: Q01DX001 (ip), vehicle: saline + alcohol) was 5 of 8 and the survivor count (dose: 4.0 mg/kg/injection, schedule: Q01DX001 (oral), vehicle: saline + alcohol) was 8 of 8. For the same compound, the survivor count (dose: 4.0 mg/kg/injection, schedule: Q01DX001 (sc), vehicle: saline + alcohol) was 6 of 8, the survivor count (dose: 4.0 mg/kg/injection, schedule: Q01DX009 (ip), vehicle: saline + alcohol) was 3 of 8 and the survivor count (dose: 4.0 mg/kg/injection, schedule: Q01DX009 (ip), vehicle: saline with Tween-80) was 5 of 8. The survivor count (dose: 4.0 mg/kg/injection, schedule: Q01DX009 (oral), vehicle: saline + alcohol) was 7 of 8 and 8 of 8, the survivor count (dose: 4.0 mg/kg/injection, schedule: Q04DX003 (ip), vehicle: saline + alcohol) was 7 of 8 and the survivor count (dose: 4.0 mg/kg/injection, schedule: Q08DX002 (ip), vehicle: saline + alcohol) was 6 of 8. The survivor count (dose: 8.0 mg/kg/injection, schedule: Q01DX001 (ip), vehicle: saline + alcohol) was 0 of 8, the survivor count (dose: 8.0 mg/kg/injection, schedule: Q01DX001 (oral), vehicle: saline + alcohol) was 6 of 8 and 8 of 8 and the survivor count (dose: 8.0 mg/kg/injection, schedule: Q01DX001 (sc), vehicle: saline + alcohol) was 5 of 8. The survivor count (dose: 8.0 mg/kg/injection, schedule: Q01DX009 (oral), vehicle: saline + alcohol) was 0 of 8, the survivor count (dose: 8.0 mg/kg/injection, schedule: Q08DX002 (ip), vehicle: saline + alcohol) was 1 of 8 and the survivor count (dose: 16.0 mg/kg/injection, schedule: Q01DX001 (ip), vehicle: saline + alcohol) was 0 of 8. The survivor count (dose: 16.0 mg/kg/injection, schedule: Q01DX001 (oral), vehicle: saline + alcohol) was 3 of 8 and 7 of 8, the survivor count (dose: 16.0 mg/kg/injection, schedule: Q01DX001 (sc), vehicle: saline + alcohol) was 1 of 8 and the survivor count (dose: 16.0 mg/kg/injection, schedule: Q08DX002 (ip), vehicle: saline + alcohol) was 0 of 8.

— PubChem BioAssay AID186 (DTP/NCI, 2004)
